According to PMC4466507 (PLoS ONE, 2015):

Experiment: peptide made by a vendor
Conditions: whole synthesis, LC-MS

Substance	purity (crude or final not stated) [%]
CPQ2-GGSGGS-K(5FAM)-KK-NH2	95.1
CPQ2-IVYELQGP-K(5FAM)-KK-NH2	96.7
